Reference: patent publication US20250034269A1
Results are given in words; binding and its absence hold for the method and conditions named. Some results given as binding are weak or reduced against the parent protein; the word gives no strength.

The chains behind the UniProt entries cited, without tags or fusion partners. Where a name states a change or a piece, a line headed by the entry shows the natural chain unless it says otherwise.
UniProt P36941: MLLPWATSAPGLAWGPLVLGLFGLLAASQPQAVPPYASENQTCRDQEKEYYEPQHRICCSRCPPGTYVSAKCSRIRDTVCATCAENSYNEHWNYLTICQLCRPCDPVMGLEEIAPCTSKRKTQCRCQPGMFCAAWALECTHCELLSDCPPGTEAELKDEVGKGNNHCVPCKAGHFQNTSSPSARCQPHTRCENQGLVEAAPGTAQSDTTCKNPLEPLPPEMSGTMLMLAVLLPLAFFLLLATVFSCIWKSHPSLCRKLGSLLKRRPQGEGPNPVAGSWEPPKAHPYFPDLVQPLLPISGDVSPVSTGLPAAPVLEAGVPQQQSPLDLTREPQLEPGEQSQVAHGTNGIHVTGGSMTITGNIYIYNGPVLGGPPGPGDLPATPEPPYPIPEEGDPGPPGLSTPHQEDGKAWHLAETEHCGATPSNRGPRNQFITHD
UniProt P50284: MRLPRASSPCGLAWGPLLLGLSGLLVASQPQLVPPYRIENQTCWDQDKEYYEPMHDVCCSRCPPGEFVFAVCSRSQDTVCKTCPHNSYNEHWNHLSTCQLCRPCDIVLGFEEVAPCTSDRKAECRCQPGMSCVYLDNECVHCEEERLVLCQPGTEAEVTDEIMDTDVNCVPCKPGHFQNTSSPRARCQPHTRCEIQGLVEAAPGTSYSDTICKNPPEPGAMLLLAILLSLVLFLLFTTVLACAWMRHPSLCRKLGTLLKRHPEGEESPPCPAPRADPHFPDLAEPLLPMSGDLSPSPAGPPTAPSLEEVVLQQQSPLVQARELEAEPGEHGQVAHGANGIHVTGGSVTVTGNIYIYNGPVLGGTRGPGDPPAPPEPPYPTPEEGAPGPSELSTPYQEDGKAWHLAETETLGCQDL

B1: P1AE9457 (antibody, human IgG1, kappa, L234A L235A, V domains shown)
VH: EVQLLESGGGLVQPGGSLRLSCAASGFTFSNYAMTWVRQAPGKGLEWVSEISGSGGSTYYADSVKGRFTISRDNSKNTLYLQMNSLRAEDTAVYYCAKDDDGAYGDTMDVWGQGTTVTVSS
VL: DIQMTQSPSSLSASIGDRVTITCRASQDISNYLNWYQQKPGKAPKLLIYAASALQSGVPSRFSGSGSGTDFTLTISSLQPEDFATYYCQHYKSYPYTFGQGTKVEIRR
B2: P1AE9450 (antibody, human IgG1, kappa, L234A L235A, V domains shown)
VH: EVQLLESGGGLVQPGGSLRLSCAASGFTVSSYVMKWFRQAPGKGLEWVSSISGSGGRPFYADSVKGRFTISRDNSKNALYLQMNSLRAEDTAVYYCANDMDVWGQGTTVTVSS
VL: DIQMTQSPSSLSASVGDRVTITCRASQDISSFLKWYQQKPGKAPTLLIYAASALQSGVPSRFSGSGSGTDFTLTISSLQPEDFATYYCQQYNTYPLTFGGGTKVDIKR
B3: P1AE1873 (CBE11) (antibody, human IgG1, kappa, L234A L235A, V domains shown)
VH: EVQLVESGGGLVKPGGSLRLSCAASGFTFSDYYMYWFRQAPGKGLEWVATISDGGSYTYYPDSVKGRFTISRDNAKNSLYLQMSSLRAEDTAVYYCAREENGNFYYFDYWGQGTTVTVSS
VL: DIQMTQSPSSLSASVGDRVTITCKAGQDIKSYLSWYQQKPGKAPKLLIYYATRLADGVPSRFSGSGSGTDYTLTISSLQPEDFATYYCLQHGESPWTFGGGTKLEIKR
B4: P1AF0080 (antibody, human IgG1, kappa, L234A L235A, V domains shown)
VH: EVQLLESGGGLVQPGGSLRLSCAASGFTFSYYAMTWVRQAPGKGLEWIGVINSGGGTYYTDSVKGRFTMSRDNSKNTLYLQVNSLRAEDTAVYYCAKASTADVWGQGTTVTVSS
VL: DIQMTQSPSSLSASVGDRVTITCQASQGISNYLSWYQQKPGKAPKRLIFAASSLESGVPSRFSGSGSGTDFTLTISSLQPEDFATYYCQQYNSYSLTFGGGTKLEIKR
B5: P1AF0079 (antibody, human IgG1, kappa, L234A L235A, V domains shown)
VH: EVQLLESGGALVQPGGSLRLSCAASGFTFSSYAMSWVRQAPGKGLEWVSVITGSSSSIDYADSVKGRFTISRDNSKNTLYLQMNSLRAEDTAVYYCAKGGSGVWSISTDFDYWGQGTLVTVSS
VL: DIQMTQSPSFLSASVGDRVTITCQASQDISNYLNWYQQKPGKAPKHLIYAASSLHSGVPSRFSGSGSGAYFTLTITSLQPEDFATYYCQQSHSTPPTFGPGTKVDIKR
B6: P1AE9459 (antibody, human IgG1, kappa, L234A L235A, V domains shown)
VH: EVQLVESGGGLVQPGGSLRLSCAASGFTFSSYTMNWVRQAPGKGLEWVSGVAPSGDRTYYTDSVKGRFTISRDNAKNTLDLQMTSLRAEDAAIYICAQGFAFTNWGQGTMVTVSS
VL: DIQMTQSPSSLSASVGDRVTITCRASQGISSALAWFQQKPGKAPKRLIFDASSLDSGVPSRFSGSGSGTDFTLTISSLQPEDFATYYCQQYNNYPLTFGGGTKVEMKR
B7: P1AE9452 (antibody, human IgG1, kappa, L234A L235A, V domains shown)
VH: EVQLLESGGGLVQPGGSLRLSCAAAGFTFSSYPMTWVRQAPGKGLEWVSLISPSGATTYYADSVKGRFTISRDTSKNTLYLQMNSLRAEDTAVYYCAKNHYPDDVIIKNYYFYGVDVWGQGTTVTVSS
VL: DIQMTQSPSSLSASVGDRVTITCRASQDISNYLNWYQQKPGKAPKSLIYAASSLQSGVPSRFSGSGSGTDFTLTISSLQPEDFANYYCQQTHTIPYSFGQGTNLEIKR
B8: P1AF0064 (antibody, human IgG1, kappa, L234A L235A, V domains shown)
VH: EVQLQQYGAELGKPGTSVKLSCKVSGYNIGNTYIHWVIQRPGKGLEWIGRIDPTNGNTICTEKFKNKATLTADLSSNTAYMQLSQLKSDDTAIYFCAPTTLTTPDSFAYWGQGTLVTVSS
VL: DIQMTQSPSQLSASVGDRVTLSCKASQNIYKYLNWYQQKLGEAPRLLIYSTNILQTGIPSRFSGSGSGTDYTLTISSLQPEDAATYFCQKYYSGFTFGSGTKLEMKR

The binders below were run against dimeric human LTBR-Fc biotinylated (P1AE2401) (human) (UniProt P36941) (assay: ligand-competition ELISA: biotinylated dimeric human LTBR-Fc (P1AE2401) on streptavidin plate, antibody titrated 1:3 from 100 nM, then human lymphotoxin α1β2 (P1AE1235; sheet: huLTa1b1) at 250 ng/ml, bound ligand detected with anti-His6-POD).

Binder | binding
B1 | binds
B2 | binds

What follows are binders tested against dimeric human LTBR-Fc biotinylated (P1AE2401) (human) (UniProt P36941) (assay: direct ELISA).

binding | Binder
binds | B3
binds | B4
binds | B5
binds | B6
binds | B7
binds | B8
binds | B1
binds | B2

The binders below were run against dimeric murine LTBR-Fc disulfide-linked homodimer biotinylated (P1AE2655) (mouse; human) (UniProt P50284) (assay: direct ELISA).

binding | Binder
binds | B4
binds | B6
binds | B8

These binders were tested against dimeric human LTBR-Fc biotinylated (P1AE2401) (human) (UniProt P36941) (assay: ligand-competition ELISA: biotinylated dimeric human LTBR-Fc (P1AE2401, 500 ng/ml) on streptavidin plate, antibody titrated 1:3 from 100 nM, then His6-tagged human LIGHT at 1000 ng/ml, bound ligand detected with anti-His6-POD).

binding | Binder
binds | B6
binds | B7
binds | B2
